These results are taken from paper PMC11705627.

The target in the assay is T1, interferon regulatory factor 9 (human (endogenous in CAL27 and SCC25)), Q00978.
T1 chain: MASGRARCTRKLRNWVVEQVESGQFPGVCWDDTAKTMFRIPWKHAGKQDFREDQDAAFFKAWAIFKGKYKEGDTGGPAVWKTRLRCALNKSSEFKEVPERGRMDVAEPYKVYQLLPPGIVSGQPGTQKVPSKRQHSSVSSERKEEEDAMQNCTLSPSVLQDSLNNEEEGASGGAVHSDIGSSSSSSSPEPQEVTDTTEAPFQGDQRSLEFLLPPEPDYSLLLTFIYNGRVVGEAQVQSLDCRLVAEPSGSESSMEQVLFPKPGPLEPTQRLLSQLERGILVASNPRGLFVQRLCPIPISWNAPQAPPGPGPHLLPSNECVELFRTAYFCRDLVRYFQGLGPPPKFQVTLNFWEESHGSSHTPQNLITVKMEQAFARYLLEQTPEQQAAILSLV
Kind of assay: co-IP; lysates of CAL27 and SCC25 cells transfected with Si FAT1 or control siRNAs, with or without CaMKII knockdown, lysed 0.5 h on ice; IP with anti-IRF9 antibody or control IgG at 4 °C overnight, protein A/G magnetic beads 1 h at room temperature; western blot for p-STAT1. As to conditions: remark: other sources report otherwise. In general terms: In western blotting, separated proteins are transferred to a membrane and probed.

Results are given in words; binding and its absence hold for the method and conditions named. In cells and extracts the contact can be indirect. Some binding calls cover weakened binding; strength is not graded here.

B1: phosphorylated STAT1, P42224 1-750 (protein)
chain: MSQWYELQQLDSKFLEQVHQLYDDSFPMEIRQYLAQWLEKQDWEHAANDVSFATIRFHDLLSQLDDQYSRFSLENNFLLQHNIRKSKRNLQDNFQEDPIQMSMIIYSCLKEERKILENAQRFNQAQSGNIQSTVMLDKQKELDSKVRNVKDKVMCIEHEIKSLEDLQDEYDFKCKTLQNREHETNGVAKSDQKQEQLLLKKMYLMLDNKRKEVVHKIIELLNVTELTQNALINDELVEWKRRQQSACIGGPPNACLDQLQNWFTIVAESLQQVRQQLKKLEELEQKYTYEHDPITKNKQVLWDRTFSLFQQLIQSSFVVERQPCMPTHPQRPLVLKTGVQFTVKLRLLVKLQELNYNLKVKVLFDKDVNERNTVKGFRKFNILGTHTKVMNMEESTNGSLAAEFRHLQLKEQKNAGTRTNEGPLIVTEELHSLSFETQLCQPGLVIDLETTSLPVVVISNVSQLPSGWASILWYNMLVAEPRNLSFFLTPPCARWAQLSEVLSWQFSSVTKRGLNVDQLNMLGEKLLGPNASPDGLIPWTRFCKENINDKNFPFWLWIESILELIKKHLLPLWNDGCIMGFISKERERALLKDQQPGTFLLRFSESSREGAITFTWVERSQNGGEPDFHAVEPYTKKELSAVTFPDIIRNYKVMAAENIPENPLKYLYPNIDKDHAFGKYYSRPKEAPEPMELDGPKGTGYIKTELISVSEVHPSRLQTTDNLLPMSPEEFDEVSRIVGSVEFDSMMNTV
modifications: here or on the partner: phosphorylated (p-STAT1; site not stated)
Take B1: the binding result was “binds”.
